According to PubChem BioAssay AID2685 (National Center for Advancing Translational Sciences (NCATS), 2010):
About 2,100 (0.66%) of roughly 320,000 compounds were called active. The inconclusive results got no clear call from the source; some entries with a clear call stand among them for comparison. Calls come from the whole dose curve; as a rule, active = well fitted inhibition curve with a large enough effect in the signal ratio, with a control signal flat (not every such curve was filed as active); inconclusive = small, poorly fitted or top-dose-only effect, or effect the other way, or a change in a side signal; inactive = flat fitted curve, though single readings scatter; the % refers to the signal ratio. Potencies beside an inconclusive call are fits to weak or partial responses and may not hold up.

assay: qHTS Assay for Lipid Storage Modulators in Drosophila S3 Cells; conditions: BODIPY lipid droplet fluorescence, 18-24 h, cells fed with added oleic acid; lipid storage change, negative = inhibition: at 46.1 µM (top of the series) unless noted
In short: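 Drosophila S3 cells loaded with oleic acid (400 uM, as added) and compounds at several concentrations; lipid droplets imaged by 488-nm laser-scanning cytometry, 500–530 nm intensity and object ratio to cell channel. Percent activity normalized to 20 uM Triacsin C.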
% is set by controls: 0 for no effect and ±100 for the full control effect; potency is the fitted concentration of half-maximal effect.

Row | SMILES | lipid storage change, negative = inhibition | Potency | outcome
1 | O=C(CCCSc1nnc(SCCCC(=O)c2ccc(F)cc2)s1)c1ccc(F)cc1 | inconclusive: -18.9% |  | 
2 | O=C(CSc1nc(-c2ccccc2)c(-c2ccccc2)o1)NC1CCS(=O)(=O)C1 (stereo not drawn) | inconclusive: 15.7% |  | 
3 | O=C(COc1ccc(F)cc1Cl)Nc1cc(S(=O)(=O)N2CCOCC2)ccc1N1CCCCC1 | inconclusive: 37.7% [activator] [at 0.00295 µM] |  | 
4 | Cc1ccc(C)c2c1[nH]c1ccccc12 | inconclusive: 329% |  | 
5 | CC(CC(=O)Nc1cc(S(=O)(=O)N2CCOCC2)ccc1OCC(F)(F)F)c1ccccc1 (stereo not drawn) | inconclusive: 34.9% |  | 
6 | O=C(/C=C/c1ccco1)N1CCN(c2ncccn2)CC1 |  | inconclusive: 29.1 µM [activator, single point] | 
7 | Cc1ccc(S(=O)(=O)N(C)CC(=O)N2CCN(C(=O)c3ccco3)CC2)cc1 |  | inconclusive: 29.1 µM [falling, single point] | 
8 | CCS(=O)(=O)N1CCN(C(=O)c2cccc3ccccc23)CC1 |  |  | inactive [at 46.1 µM]
9 | Cc1ccc(C(=O)Nc2c(C)cc(-c3ccc(Cl)cc3)oc2=O)cc1 | inconclusive: 15.8% |  | 
10 | CC1CC(=O)Nc2ccccc2N1S(=O)(=O)c1cccc(F)c1 (stereo not drawn) |  | inconclusive: 4.61 µM [falling, full curve, poor fit] | 
11 | Cc1ccc(NC(=O)COC(=O)C2CCC(=O)N2)c([N+](=O)[O-])c1 (stereo not drawn) | inconclusive: -7.34% |  | 
12 | CC1CCCCC1NC(=O)/C(C#N)=C/c1ccc(OCC(N)=O)cc1 (stereo not drawn) | inconclusive: -28.8% |  | 
13 | Cc1ccc(N2C(=O)N3[C@H](c4ccc(Cl)cc4)[C@@H]4C(=O)N(C5CCCCC5)C(=O)[C@@H]4[C@]3(Cc3ccccc3)C2=O)cc1 |  | inconclusive: 29.1 µM [activator, single point] | 
14 | O=C(Cn1ncc2c(=O)oc3ccccc3c21)Nc1nc2ccccc2s1 | inconclusive: -46.2% |  | 
15 | COc1cc(-c2cc(N3C(=O)Nc4ccccc4N3O)n[nH]2)cc(OC)c1OC |  | inconclusive: 1.16 µM [falling, single point] | 
16 | COc1ccc(C2=C(C=C(C#N)C#N)C(c3ccccc3C)c3ccccc3O2)cc1OC (stereo not drawn) |  | inconclusive: 29.1 µM [activator, single point] | 
17 | COc1cccc(OCC(=O)N(C)Cc2nc(-c3cccc(C)c3)no2)c1 | inconclusive: -21.7% |  | 
18 | O=C(c1cc(Cl)nc2ccccc12)N(Cc1nnc(-c2ccc(Cl)cc2)o1)C1CC1 | inconclusive |  | 
19 | COc1cccc(N=Cc2c(O)n(-c3cccc(C)n3)c(=O)c3ccccc23)c1 |  | inconclusive: 1.16 µM [rising, partial curve] | 
20 | O=C(Nc1cccc(-c2cn3cccnc3n2)c1)c1ccco1 | inconclusive: 304% |  | 
21 | CCCc1ccc(-c2cc(N)n[nH]2)cc1 |  | inconclusive: 0.116 µM [activator, partial curve, poor fit] | 
22 | COc1ccccc1-c1c(C(F)(F)F)oc2cc(OC(=O)c3ccc([N+](=O)[O-])cc3)ccc2c1=O | inconclusive: -11.2% |  | 
23 | CCC(=O)N1CCN(c2ccc(NC(=O)c3ccc([N+](=O)[O-])o3)cc2)CC1 |  | inconclusive: 1.3 µM [cytotoxic, full curve] | 
24 | CCOC(=O)/C=C1\CN(C(C)c2ccccc2)S(=O)(=O)c2ccccc21 (stereo not drawn) |  | inconclusive: 6.51 µM [falling, single point] | 
25 | CCCCCN(C(=O)CCC(=O)OCC(=O)c1c(C)cc(C)cc1C)c1c(N)n(CCCC)c(=O)[nH]c1=O | inconclusive: 17.5% |  | 

Reprinted, nos. 14 to 18
Row | SMILES | lipid storage change, negative = inhibition | Potency | outcome
14 | O=C(Cn1ncc2c(=O)oc3ccccc3c21)Nc1nc2ccccc2s1 | inconclusive: -46.2% |  | 
15 | COc1cc(-c2cc(N3C(=O)Nc4ccccc4N3O)n[nH]2)cc(OC)c1OC |  | inconclusive: 1.16 µM [falling, single point] | 
16 | COc1ccc(C2=C(C=C(C#N)C#N)C(c3ccccc3C)c3ccccc3O2)cc1OC (stereo not drawn) |  | inconclusive: 29.1 µM [activator, single point] | 
17 | COc1cccc(OCC(=O)N(C)Cc2nc(-c3cccc(C)c3)no2)c1 | inconclusive: -21.7% |  | 
18 | O=C(c1cc(Cl)nc2ccccc12)N(Cc1nnc(-c2ccc(Cl)cc2)o1)C1CC1 | inconclusive |  | 

Continued.

Row | SMILES | lipid storage change, negative = inhibition | Potency | outcome
26 | O=C(NC(Cc1ccccc1)C(=O)NCCc1ccccn1)c1ccccc1 (stereo not drawn) | inconclusive: 16.6% |  | 
27 | O=C(CN1CCN(Cc2ccc3c(c2)OCO3)CC1)Nc1ccc(F)cc1 | inconclusive: 28.4% |  | 
28 | CC(=O)N1c2ccc(S(=O)(=O)N3CCC(C(=O)NC4CCC(C)CC4)CC3)cc2CC1C (stereo not drawn) | inconclusive: 102% |  | 
29 | CC(=O)N1N=C(c2ccc(Cl)cc2)OC1(C)C | inconclusive: 4.83% |  | 
30 | Cc1ccc(S(=O)(=O)c2c(COC(=O)c3ccccc3Cl)c(-c3ccccc3)nn2C)cc1 | inconclusive: 31.7% |  | 
31 | CCOc1cc(C(=O)OCC(=O)Nc2cc(C)on2)ccc1OCC(C)C | inconclusive: -37.9% |  | 
32 | COc1ccccc1OCCNC(=O)C1CCN(C(C)=O)CC1 | inconclusive: -12.6% |  | 
33 | CCOc1ccc(NC(=S)NCCCn2ccnc2)cc1 | inconclusive: 23% |  | 
34 | Cc1ccc(NC(=O)c2ccc(CSc3nnc(-c4ccncc4)n3C)cc2)c(C)c1 | inconclusive: 22% |  | 
35 | N#Cc1cccc(NC(=O)c2ccc(S(=O)(=O)N3CCOCC3)cc2)c1 |  | inconclusive: 4.11 µM [falling, single point] | 
36 | CC(=O)c1cccc(NC(=O)c2cc(-c3cccs3)on2)c1 |  | inconclusive: 0.146 µM [falling, full curve, poor fit] | 
37 | Cc1cccc(C)c1OCCCCN1CCCCC1 | inconclusive: 12.8% |  | 
38 | COC(=O)C1=C(CCc2ccccc2)NC(=O)NC1c1ccc(Br)cc1 (stereo not drawn) |  | inconclusive: 20.6 µM [falling, partial curve] | 
39 | NC(=NC(=O)c1ccccc1)N1N=CCC1c1ccccc1 (stereo not drawn) | inconclusive: 13.8% [at 9.22 µM] |  | 
40 | NS(=O)(=O)c1ccc(CCNC(=O)C(=O)NCC2OCCN2S(=O)(=O)c2ccc(Cl)cc2)cc1 (stereo not drawn) | inactive: 12.9% |  | 
41 | COc1ccc(N=C2SC(C(N)=O)CC(=O)N2Cc2ccc3c(c2)OCO3)cc1 (stereo not drawn) | inconclusive: 4.89% |  | 
42 | COC(=O)C1=C(CS(=O)(=O)c2ccccc2)NC(=O)NC1c1ccccc1 (stereo not drawn) |  | inconclusive: 0.259 µM [activator, full curve, poor fit] | 
43 | COc1ccc(-c2nnn(CC(=O)N3CCOCC3)n2)cc1 | inconclusive: 45.9% |  | 
44 | CCN(C(=O)CSc1nc(-c2ccccc2)c(-c2ccccc2)[nH]1)C1CCS(=O)(=O)C1 (stereo not drawn) |  | inconclusive: 29.1 µM [cytotoxic, single point] | 
45 | CCOc1c(Cl)cc(/C=C/C(=O)N(CC)CC(=O)Nc2ccc(NC(C)=O)cc2)cc1OC | inconclusive |  | 
46 | O=C(CCS(=O)(=O)c1ccc(Br)cc1)Nc1ccc(Cl)cc1F | inconclusive: 2.58% |  | 
47 | O=C1CCC(C(=O)OC(C(=O)Nc2cc(Cl)cc(Cl)c2)c2ccccc2)=NN1 (stereo not drawn) | inconclusive: 2.27% |  | 
48 | COc1ccc(NC(=O)Nc2nnc(N3CCC(C)CC3)s2)cc1OC | inconclusive: -3.62% |  | 
49 | CCCN1CCN(CCCNC(=O)c2cc3c(s2)-c2ccccc2OC3)CC1 |  | inconclusive: 5.8 µM [activator, partial curve] | 
50 | O=C(CN(Cc1ccc(Cl)c(Cl)c1)S(=O)(=O)c1ccccc1)N/N=C\c1ccc2c(c1)OCO2 | inconclusive: 114% |  | 

Row | SMILES | lipid storage change, negative = inhibition | Potency | outcome
51 | O=C1NC(=S)S/C1=C\c1ccc(SCc2ccccc2)o1 | inconclusive: 1.31% |  | 
52 | COc1ccc(CCC(=O)N2CCCC(Nc3ccc(C)c(C)c3)C2)cc1OC (stereo not drawn) | inconclusive: 96.6% |  | 
53 | COc1cccc(OCc2cc(/C=N/NC(=O)c3nc(Cl)c(Cl)c(N)c3Cl)ccc2OC)c1 |  | inconclusive: 1.84 µM [activator, partial curve] | 
54 | CCC(CC)c1nnc(NC(=O)C2=COCCO2)s1 | inconclusive |  | 
55 | O=C(c1cccc(Cl)c1)N1CCC(=O)N(C(COCc2cccc(Cl)c2)Cc2ccccc2)CC1 (stereo not drawn) | inconclusive: 29.7% |  | 
56 | CC(=O)Nc1ccc(S(=O)(=O)N(C)CC(=O)OCC(=O)Nc2cccnc2Cl)cc1 |  | inconclusive: 36.6 µM [falling, partial curve, poor fit] | 
57 | Clc1cccc(-c2sc(Nc3ccccc3)n[n+]2-c2ccccc2)c1Cl | inconclusive: -3.27% |  | 
58 | O=C(CSc1nc2ccccc2[nH]1)Nc1c(F)cccc1F | inconclusive: 102% |  | 
59 | CCCC(=O)Nc1nc2ccc(C(=O)OCC)cc2s1 |  | inconclusive: 6.51 µM [falling, partial curve] | 
60 | CCOC(=O)c1c(C)n(C)c2ccc(OCC(O)Cn3nc(C)c(Br)c3C)cc12 (stereo not drawn) | inconclusive: -14.8% |  | 
61 | COc1cccc(NC(=S)N2CCN(S(C)(=O)=O)CC2)c1 |  | inconclusive: 20.6 µM [activator, partial curve] | 
62 | CCOc1ccc(S(=O)(=O)NCCC2=CCCCC2)c2ccccc12 |  | inconclusive: 29.1 µM [falling, single point] | 
63 | COc1cc(CNS(=O)(=O)CCl)cc(OC)c1OC | inconclusive: 10.3% |  | 
64 | CN(C)S(=O)(=O)c1ccc(C(=O)NNC(=O)C2COc3ccccc3O2)cc1 (stereo not drawn) | inconclusive: 3.97% |  | 
65 | O=C(Nc1ccccc1C(=O)O)c1cc(S(=O)(=O)Nc2ccccc2)ccc1Cl | inconclusive: 46.9% |  | 
66 | O=C(NC1CCCCC1)c1ccc(-c2ccccc2[N+](=O)[O-])o1 | inconclusive: -53.3% |  | 
67 | CSc1nc(N)nc(SCC(=O)C23CC4CC(CC(C4)C2)C3)c1C#N | inconclusive: -27.5% |  | 
68 | Cc1ccc(S(=O)(=O)N(C)C)cc1NC(=O)COc1cccc(-n2cnnn2)c1 |  | inconclusive: 0.461 µM [falling, partial curve, poor fit] | 
69 | CCC(Cc1c(I)cc(I)c(N)c1I)C(=O)O (stereo not drawn) | inconclusive: 11.7% |  | 
70 | CC(Sc1nnc(-c2cccnc2)n1-c1ccccc1F)C(=O)N1CCCc2ccccc21 (stereo not drawn) | inconclusive: 14.8% |  | 
71 | CCc1c(C)sc(NC(=O)c2cccs2)c1C(N)=O | inconclusive: 1.78% |  | 
72 | COc1cc(/C=N/NC(=Nc2ccc(C)cc2)c2nc3ccccc3s2)ccc1O | inconclusive: -165% |  | 
73 | Cc1nnc(NC(=O)c2cccc(S(=O)(=O)N3CCOCC3)c2)s1 |  | inconclusive: 29.1 µM [activator, single point] | 
